Experimental data reported in patent US20120329784A1, “COMPOUNDS AND METHODS” (priority 2010, published 2012).
Where a name gives a salt, the structure may show the parent alone. Some entries share one result that the patent states for a list of compounds.

Target: T1, Full length human TNNI3K (hTNNI3K) (Homo sapiens, UniProt Q59H18)
T1 construct: His-MBP-TEV-Full length human TNNI3K (hTNNI3K); His (N); MBP (N); TEV cleavage site (N); made in house; host or cells: baculovirus expression system (printed 'Baculokinase system')
T1 sequence (Q59H18 1-835): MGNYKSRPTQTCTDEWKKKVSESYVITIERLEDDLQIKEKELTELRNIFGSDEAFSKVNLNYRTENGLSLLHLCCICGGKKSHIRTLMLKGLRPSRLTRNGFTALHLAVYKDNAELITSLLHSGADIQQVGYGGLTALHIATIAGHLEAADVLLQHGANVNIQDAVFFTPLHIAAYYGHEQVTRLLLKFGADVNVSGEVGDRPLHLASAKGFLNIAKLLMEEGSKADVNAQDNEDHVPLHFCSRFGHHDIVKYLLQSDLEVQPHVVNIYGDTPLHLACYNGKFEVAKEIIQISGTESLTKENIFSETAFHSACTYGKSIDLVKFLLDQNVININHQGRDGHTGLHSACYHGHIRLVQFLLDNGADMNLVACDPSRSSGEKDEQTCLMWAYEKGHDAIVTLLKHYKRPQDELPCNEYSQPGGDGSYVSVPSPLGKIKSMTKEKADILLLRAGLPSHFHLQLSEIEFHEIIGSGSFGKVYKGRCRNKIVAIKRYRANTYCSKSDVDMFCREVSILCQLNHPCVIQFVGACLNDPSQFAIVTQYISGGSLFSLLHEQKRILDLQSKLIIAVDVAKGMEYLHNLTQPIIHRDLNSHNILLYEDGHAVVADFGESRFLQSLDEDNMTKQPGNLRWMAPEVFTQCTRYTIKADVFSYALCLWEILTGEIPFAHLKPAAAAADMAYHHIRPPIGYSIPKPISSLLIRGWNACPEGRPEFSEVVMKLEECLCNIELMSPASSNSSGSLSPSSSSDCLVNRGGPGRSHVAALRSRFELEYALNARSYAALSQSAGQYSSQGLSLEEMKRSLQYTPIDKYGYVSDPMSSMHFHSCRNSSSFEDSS
Assay: Fluorescent polarization assay of compound inhibition on hTNNI3K ATP binding (Biological Assay Method I)
Details: mean of a minimum of 2 experiments; displacement of fluorescent ligand from hTNNI3K ATP binding pocket; 60 min at rt

pXC50, ≥ 6.0:
CNS(=O)(=O)c1ccc(OCC(F)(F)F)c(Nc2cc(Nc3cc(C)c(Cl)cn3)ncn2)c1 [Example 298, 3-({6-[(5-chloro-4-methyl-2-pyridinyl)amino]-4-pyrimidinyl}amino)-N-methyl-4-[(2,2,2-trifluoroethyl)oxy]benzenesulfonamide trifluoroacetate]
CCN(CC)CCOc1ccc(Nc2cc(Nc3cccc(S(=O)(=O)NC)c3)ncn2)cc1 [Example 95, 3-({6-[(4-{[2-(diethylamino)ethyl]oxy}phenyl)amino]-4-pyrimidinyl}amino)-N-methylbenzenesulfonamide]
CNS(=O)(=O)c1cccc(Nc2cc(Nc3cccc(-c4ccc(NC(C)=O)cc4)c3)ncn2)c1 [Example 341, N-(3′-{[6-({3-[(methylamino)sulfonyl]phenyl}amino)-4-pyrimidinyl]amino}-4-biphenylyl)acetamide]
CNS(=O)(=O)c1cc(Nc2cc(Nc3ccc(C(F)(F)F)cn3)ncn2)c(OCC(F)(F)F)cc1F.O=C(O)C(F)(F)F [Example 319, 2-fluoro-N-methyl-4-[(2,2,2-trifluoroethyl)oxy]-5-[(6-{[5-(trifluoromethyl)-2-pyridinyl]amino}-4-pyrimidinyl)amino]benzenesulfonamide trifluoroacetate]
CNS(=O)(=O)c1ccc(SC)c(Nc2cc(Nc3ccc4c(=O)cc(C)oc4c3)ncn2)c1 [Example 164, N-methyl-3-[6-(2-methyl-4-oxo-4H-chromen-7-ylamino)-pyrimidin-4-ylamino]-4-methylsulfanyl-benzenesulfonamide trifluoroacetate]
CNS(=O)(=O)c1cccc(Nc2cc(Nc3ccc(Cl)c(Cl)c3)ncn2)c1 [Example 207, 3-({6-[(3,4-dichlorophenyl)amino]-4-pyrimidinyl}amino)-N-methylbenzenesulfonamide trifluoroacetate]
CNS(=O)(=O)c1cccc(Nc2cc(Nc3cccc(-c4csc(C)n4)c3)ncn2)c1 [Example 182, N-methyl-3-{6-[3-(2-methyl-thiazol-4-yl)-phenylamino]-pyrimidin-4-ylamino}-benzenesulfonamide trifluoroacetate]
CNS(=O)(=O)c1cc(Nc2cc(Nc3ccc(Cl)cn3)ncn2)c(S(C)(=O)=O)cc1F [Example 317, 5-[6-(5-chloro-pyridin-2-ylamino)-pyrimidin-4-ylamino]-2-fluoro-4-methanesulfonyl-N-methyl-benzenesulfonamide trifluoroacetate]
CNS(=O)(=O)c1cccc(Nc2cc(Nc3ccc(OCCN(C)C)cc3)ncn2)c1 [Example 225, 3-({6-[(4-{[2-(dimethylamino)ethyl]oxy}phenyl)amino]-4-pyrimidinyl}amino)-N-methylbenzenesulfonamide trifluoroacetate]
CNS(=O)(=O)c1ccc(SC)c(Nc2cc(Nc3ccc4sc(C)nc4c3)ncn2)c1 [Example 145, N-methyl-3-[6-(2-methyl-benzothiazol-5-ylamino)-pyrimidin-4-ylamino]-4-methylsulfanyl-benzenesulfonamide trifluoroacetate]
CNS(=O)(=O)c1cccc(Nc2cc(Nc3ccc4[nH]ccc4c3)ncn2)c1 [Example 98, 3-{[6-(1H-indol-5-ylamino)-4-pyrimidinyl]amino}-N-methylbenzenesulfonamide trifluoroacetate]
CNS(=O)(=O)c1ccc(OCC(F)(F)F)c(Nc2cc(Nc3ccc(C(C)C)cn3)ncn2)c1 [Example 301, 3-(6-(5-isopropylpyridin-2-ylamino)pyrimidin-4-ylamino)-N-methyl-4-(2,2,2-trifluoroethoxy)benzenesulfonamide trifluoroacetate]
CNS(=O)(=O)c1cccc(Nc2cc(Nc3ccc(Cl)cc3)ncn2)c1 [Example 57, 3-({6-[(4-chlorophenyl)amino]-4-pyrimidinyl}amino)-N-methylbenzenesulfonamide trifluoroacetate]
CNS(=O)(=O)c1cccc(Nc2cc(Nc3cccc(-c4ccccc4)c3)ncn2)c1 [Example 49, 3-{[6-(3-biphenylylamino)-4-pyrimidinyl]amino}-N-methylbenzenesulfonamide trifluoroacetate]
CNS(=O)(=O)c1cccc(Nc2cc(Nc3ccc(C(C)C)cc3)ncn2)c1 [Example 228, N-methyl-3-[(6-{[4-(1-methylethyl)phenyl]amino}-4-pyrimidinyl)amino]benzenesulfonamide trifluoroacetate]
CNS(=O)(=O)c1cccc(Nc2cc(Nc3ccc(CC#N)cc3)ncn2)c1 [Example 185, 3-[6-(4-cyanomethyl-phenylamino)-pyrimidin-4-ylamino]-N-methyl-benzenesulfonamide trifluoroacetate]
CNS(=O)(=O)c1cccc(Nc2cc(Nc3cc(Cl)c(O)c(Cl)c3)ncn2)c1 [Example 181, 3-[6-(3,5-dichloro-4-hydroxy-phenylamino)-pyrimidin-4-ylamino]-N-methyl-benzenesulfonamide trifluoroacetate]
CNS(=O)(=O)c1cccc(Nc2cc(Nc3nc(CC(=O)O)cs3)ncn2)c1 [Example 326, (2-{[6-({3-[(methylamino)sulfonyl]phenyl}amino)-4-pyrimidinyl]amino}-1,3-thiazol-4-yl)acetic acid]
CNS(=O)(=O)c1ccc(N(C)C)c(Nc2cc(Nc3cccc(F)c3)ncn2)c1 [Example 27, 4-(dimethylamino)-3-({6-[(3-fluorophenyl)amino]-4-pyrimidinyl}amino)-N-methylbenzenesulfonamide trifluoroacetate]
CNS(=O)(=O)c1cccc(Nc2cc(Nc3nc(C(F)(F)F)cs3)ncn2)c1 [Example 281, N-methyl-3-[(6-{[4-(trifluoromethyl)-1,3-thiazol-2-yl]amino}-4-pyrimidinyl)amino]benzenesulfonamide]
CNS(=O)(=O)c1ccc2c(c1)N(c1cc(Nc3ccc(Cl)cn3)ncn1)CC2(C)C [Example 315, 1-[6-(5-chloro-pyridin-2-ylamino)-pyrimidin-4-yl]-3,3-dimethyl-2,3-dihydro-1H-indole-6-sulfonic acid methylamide trifluoroacetate]
CNS(=O)(=O)c1cccc(Nc2cc(Nc3ccc(C(=O)N4CCSCC4)cc3)ncn2)c1 [Example 365, N-methyl-3-[(6-{[4-(4-thiomorpholinylcarbonyl)phenyl]amino}-4-pyrimidinyl)amino]benzenesulfonamide]
CNS(=O)(=O)c1ccc(SC)c(Nc2cc(Nc3ccc4[nH]ccc4c3)ncn2)c1 [Example 155, 3-[6-(1H-indol-5-ylamino)-pyrimidin-4-ylamino]-N-methyl-4-methylsulfanyl-benzenesulfonamide trifluoroacetate]
CNS(=O)(=O)c1cccc(Nc2cc(Nc3ccc(N4CCOCC4)cc3)ncn2)c1.Cl [Example 82, N-methyl-3-[(6-{[4-(4-morpholinyl)phenyl]amino}-4-pyrimidinyl)amino]benzenesulfonamide hydrochloride]
CNS(=O)(=O)c1ccc(SCC(F)(F)F)c(Nc2cc(Nc3ccc(C(F)(F)F)cc3)ncn2)c1 [Example 126, N-methyl-4-(2,2,2-trifluoroethylthio)-3-(6-(4-(trifluoromethyl)phenylamino)pyrimidin-4-ylamino)benzenesulfonamide trifluoroacetate]
CNS(=O)(=O)c1ccc(SC)c(Nc2cc(Nc3cc(OC)cc(OC)c3)ncn2)c1 [Example 141, 3-[6-(3,5-dimethoxy-phenylamino)-pyrimidin-4-ylamino]-N-methyl-4-methylsulfanyl-benzenesulfonamide trifluoroacetate]
CNS(=O)(=O)c1cc(Nc2cc(Nc3ccc(Cl)cn3)ncn2)c(OC(C)C(F)(F)F)cc1F (centres unmarked) [Example 316, 5-(6-(5-chloropyridin-2-ylamino)pyrimidin-4-ylamino)-2-fluoro-N-methyl-4-(1,1,1-trifluoropropan-2-yloxy)benzenesulfonamide trifluoroacetate]
CNS(=O)(=O)c1ccc(S(C)(=O)=O)c(Nc2cc(Nc3ccc4[nH]ccc4c3)ncn2)c1 [Example 201, 3-[6-(1H-indol-5-ylamino)-pyrimidin-4-ylamino]-4-methanesulfonyl-N-methyl-benzenesulfonamide]
CCC(=O)Nc1cccc(Nc2cc(Nc3cccc(S(=O)(=O)NC)c3)ncn2)c1 [Example 72, N-(3-{[6-({3-[(methylamino)sulfonyl]phenyl}amino)-4-pyrimidinyl]amino}phenyl)propanamide trifluoroacetate]
